No constants are given. Whether binding was seen depends on the method and setting. In cells and extracts the contact can be indirect. Some results given as binding are weak or reduced against the parent protein; the word gives no strength.

Chains of the proteins cited; added tags and fusions are not shown.
UniProt P81425: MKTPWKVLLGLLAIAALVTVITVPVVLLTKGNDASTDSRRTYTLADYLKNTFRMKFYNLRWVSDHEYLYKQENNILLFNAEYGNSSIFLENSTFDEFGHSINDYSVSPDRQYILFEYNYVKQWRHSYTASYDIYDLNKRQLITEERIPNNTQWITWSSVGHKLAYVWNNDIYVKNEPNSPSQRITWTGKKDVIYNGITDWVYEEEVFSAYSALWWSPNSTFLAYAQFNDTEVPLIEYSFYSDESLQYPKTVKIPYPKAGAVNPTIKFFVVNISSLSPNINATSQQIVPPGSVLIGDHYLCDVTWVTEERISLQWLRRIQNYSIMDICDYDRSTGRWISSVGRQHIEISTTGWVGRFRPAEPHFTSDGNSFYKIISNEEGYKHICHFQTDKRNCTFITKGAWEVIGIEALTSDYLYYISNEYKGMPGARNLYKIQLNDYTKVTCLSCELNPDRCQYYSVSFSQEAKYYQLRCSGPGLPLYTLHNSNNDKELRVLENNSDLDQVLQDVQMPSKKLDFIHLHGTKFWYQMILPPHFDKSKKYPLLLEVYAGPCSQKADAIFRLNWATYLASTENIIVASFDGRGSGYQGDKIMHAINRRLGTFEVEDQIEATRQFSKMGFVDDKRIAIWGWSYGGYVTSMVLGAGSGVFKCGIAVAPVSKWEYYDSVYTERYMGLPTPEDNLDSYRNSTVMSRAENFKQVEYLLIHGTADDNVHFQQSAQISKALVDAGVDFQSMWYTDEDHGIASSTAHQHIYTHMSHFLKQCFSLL

This experiment concerns the target T1, Tetraspanin CD9 (bovine (endogenous in cauda epididymal fluid microvesicles)) (UniProt P30932).
T1 sequence: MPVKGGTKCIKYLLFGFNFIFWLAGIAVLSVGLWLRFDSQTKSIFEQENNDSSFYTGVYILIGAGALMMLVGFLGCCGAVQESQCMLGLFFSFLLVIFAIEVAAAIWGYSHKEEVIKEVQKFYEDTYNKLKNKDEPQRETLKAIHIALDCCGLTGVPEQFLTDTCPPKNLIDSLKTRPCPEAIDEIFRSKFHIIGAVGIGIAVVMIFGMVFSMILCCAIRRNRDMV
Put plainly: co-IP; CD9-positive microvesicles lysed in Brij O10; CD9 immunoprecipitated, western blot for CD26 and CD224; normal mouse IgG as negative control.

With “DPP4_BOVIN Dipeptidyl peptidase 4/CD26 (from UniProt P81425 1-765)”, the binding result is recorded as “binds”.

(Values after PMC3681974.)
